The nature of this experiment: qHTS Assay for Modulators of Lamin A Splicing. As to conditions: HeLa LMNA splicing GFP/RFP minigene ratio, 48 h. The gist of the method: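 Read-out is the ratio of GFP to DsRed2 object intensity, acquired by 488 nm laser-scanning cytometry on HeLa lamin A-EGFP minigene reporter cells. Compound incubation 48 hrs at 37 °C in Opti-MEM with 2% FBS; DMSO 0.5% final.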
The mark [1] stands for this setting: measured here: GFP splicing reporter channel.
Setting [2] is: measured here: RFP viability control channel.

For 55 compounds, AC50 results are on record in PubChem BioAssay AID1487 (National Center for Advancing Translational Sciences (NCATS), 2009).

Values joined by “and” are separate entries in the source; they are usually repeats but may differ in a detail not shown here. Equal entries are not always repeated. This is one part of the list. Further columns of the screen follow, without active or inactive calls. Compounds called inactive in the main read-out are mostly missing here. Words in brackets tell the shape of the fitted curve; partial curves, single points and poor fits give uncertain potencies.

The AC50 is the midpoint of the concentration-response curve, whichever way the signal moves.

For the compound `Cc1cc(C(=O)Nc2c(C)nn(Cc3c(Cl)cccc3Cl)c2C)no1`, under setting [1], the AC50 is 31.6 µM [falling, single point].

With `COc1ccc(-c2ccc(SCC(=O)c3cccs3)nn2)cc1OC`, the AC50 under setting [2] was 0.0141 µM [rising, full curve, poor fit].

`CN(C)CCCN(Cc1cc2cc3c(cc2[nH]c1=O)OCO3)C(=S)Nc1ccccc1`: the AC50 under setting [1] was 22.4 µM [falling, single point].

On to `Cc1cc[n+]2c3c(cccc13)CCC2`, for which, under setting [2], the concentration at half-maximal activity (AC50) is 35.5 µM [rising, single point].

Turning to `Cc1ccc(NC(=O)CSCC(=O)Nc2ccc(N3CCOCC3)c(Cl)c2)cc1`, the AC50 under setting [2] was 0.562 µM [falling, full curve].

Turning to `CCOC(=O)c1cnc2ccc(C)cc2c1Nc1ccc(N2CCOCC2)cc1`, the AC50 under setting [2] was 35.5 µM [rising, single point].

With `CCn1c(NC(=O)c2ccco2)c(-c2ccccc2Cl)c(=O)c2ccccc21`, the half-maximal activity concentration (AC50) under setting [2] is 31.6 µM [rising, single point].

Turning to `BrC(=C\c1ccccc1)/C=N/N1CCN(c2ccccn2)CC1`, under setting [2], the AC50 is 11.2 µM [rising, single point].

On to `CCSc1nnc(-c2ccccc2SC)o1`, for which the AC50 by setting is: under setting [1], 10 µM [rising, partial curve]; under setting [2], 8.91 µM [rising, partial curve].

Consider `COCCCNC(=O)C1CCCN(c2nn3cc(-c4ccc(C)cc4)nc3s2)C1` (stereo unspecified), for which the AC50 under setting [2] was 14.1 µM [rising, single point].

Regarding `CCCCCn1ccc(=N)cc1`, the AC50 is, setting by setting: under setting [1], 12.6 µM [rising, partial curve]; under setting [2], 22.4 µM [rising, single point].

Consider `CSc1nnc(C)c(/C=C/Nc2ccc(C)cc2)n1`, for which the AC50 was 17.8 µM [rising, single point] under setting [1] and 12.6 µM [rising, partial curve] under setting [2].

For the compound `O=C(Nc1ccc(SC(F)F)cc1)c1ccc2nccnc2c1`, the AC50 under setting [2] was 15.8 µM [rising, partial curve].

`CCc1ccc(NC(=O)N2CCN(C(=O)c3nsc4ccccc34)CC2)cc1`: under setting [1], the AC50 was 0.501 µM [rising, single point].

As to `O=c1c(-c2ccccc2)nc2cnc(Nc3ccccc3)nc2n1Cc1cccs1`, the AC50 is 17.8 µM [falling, partial curve, poor fit] under setting [1] and 12.6 µM [falling, single point] under setting [2].

Turning to `CC1(C)CC(=O)C2=C(C1)OC(N)=C(C#N)C21C(=O)N(CN2CCOCC2)c2ccccc21` (stereo unspecified), the half-maximal activity concentration (AC50) is 17.8 µM [rising, single point] under setting [1] and 15.8 µM [rising, single point] under setting [2].

Regarding `COc1cc(Cl)c(C)cc1NC(=O)c1cnc2c(-c3cccc(C)c3)c(C)nn2c1C`, under setting [2], the AC50 is 0.00447 µM [falling, full curve, poor fit].

In the case of `COCCOc1nc2c(c(=O)n(C)c(=O)n2C)n1Cc1cccc(OC)c1`, the AC50 is, setting by setting: under setting [1], 17.8 µM [rising, partial curve, poor fit]; under setting [2], 14.1 µM [rising, partial curve].

With `COc1cc(S(C)=O)ccc1-c1nc2ncccc2[nH]1` (stereo unspecified), the AC50 under setting [2] is 0.224 µM [rising, partial curve, poor fit].

For `CCOC(=O)c1noc2nc(C)n(Cc3ccc([N+](=O)[O-])cc3)c(=O)c12`, the AC50 under setting [1] was 0.158 µM [falling, full curve] and the AC50 under setting [2] is 6.31 µM [falling, partial curve, poor fit].

As to `NN/C(=C\[N+](=O)[O-])Nc1ccccc1`, the AC50 by setting is: under setting [1], 28.2 µM [falling, single point]; under setting [2], 12.6 µM [falling, single point].

Consider `CCn1c(=O)cc(SCC(=O)N2CCN(c3ccccc3F)CC2)c2ccccc21`, for which the AC50 under setting [1] is 1 µM [rising, full curve] and the half-maximal activity concentration (AC50) under setting [2] is 1.12 µM [rising, full curve].

Regarding `O=C(NCc1cccc(Cl)c1)C1CCCN(c2ncnc3onc(-c4ccc(F)cc4)c23)C1` (stereo unspecified), the AC50 under setting [1] was 8.91 µM [falling, partial curve, poor fit].

Regarding `CC(NC(=O)c1ccco1)C(c1cccs1)N1CCN(c2ccccc2F)CC1` (stereo unspecified), under setting [2], the AC50 is 35.5 µM [rising, single point].

Consider `CC(C)N(C(=O)Cn1c(Cl)nc2ccccc21)C(C)C`, for which the AC50 is, setting by setting: under setting [1], 0.0355 µM [falling, full curve, poor fit]; under setting [2], 0.0447 µM [falling, full curve, poor fit].

With `CCN1CC(CN(C)Cc2nc(-c3ccco3)oc2C)CC1=O` (stereo unspecified), the AC50 under setting [1] was 0.0891 µM [falling, full curve].

For the compound `CN1CCN(c2nc(-c3cccnc3)nc3ccccc23)CC1`, the AC50 is 35.5 µM [rising, single point] under setting [1] and 35.5 µM [rising, single point] under setting [2].

Regarding `CCNC(=O)c1c(C)nc2ccccn12`, the AC50 under setting [1] is 4.47 µM [falling, single point].

Regarding `C[C@]12CC[C@@H]3c4ccc(O)cc4CC[C@H]3[C@@H]1CC[C@@H]2OC(=O)CCC(=O)O`, the AC50 by setting is: under setting [1], 0.0708 µM [falling, full curve]; under setting [2], 3.55 µM [falling, full curve, poor fit].

In the case of `O=C1/C(=C/c2ccco2)SC(=S)N1C1CCS(=O)(=O)C1` (stereo unspecified), the AC50 under setting [2] was 2.82 µM [rising, partial curve].

On to `COC(=O)c1cn(Nc2ncc(C(F)(F)F)cc2Cl)c(=O)c2ccccc12`, for which the AC50 under setting [2] is 14.1 µM [rising, single point].

`O=C(Nc1ccc(F)cc1)c1ccc(CSc2ccccc2)o1`: the AC50 under setting [2] is 14.1 µM [rising, partial curve].

As for `C/C(N)=C(/C#N)C(=O)COC(=O)CNS(=O)(=O)c1ccc(C)cc1`, the AC50 under setting [2] was 0.0447 µM [falling, full curve, poor fit].

As for `Cc1sc(-c2ccccn2)nc1OC(=O)c1ccc(F)cc1F`, the AC50 under setting [2] is 0.562 µM [rising, full curve, poor fit].

Take `COc1ccccc1[C@@H]1C(c2cccc(Cl)c2)=NN(c2ccccc2)[C@H]1C(=O)N1CCOC1=O`: the half-maximal activity concentration (AC50) under setting [2] is 12.6 µM [rising, single point].

For the compound `CCn1c(SCC(=O)Nc2ccccc2-c2ccccc2)nnc1-c1ccoc1C`, the AC50 is 31.6 µM [rising, single point] under setting [1] and 20 µM [rising, single point] under setting [2].

Regarding `O=C1CCN(C(=O)/C=C/c2ccccc2)c2ccccc21`, under setting [2], the AC50 was 22.4 µM [falling, partial curve, poor fit].

With `Cc1nc2ccccn2c1C(=O)NNC(=S)Nc1ccc(Cl)cc1`, the AC50 is 8.91 µM [rising, partial curve] under setting [1] and 14.1 µM [rising, partial curve] under setting [2].

In the case of `COc1ccc2[nH]cc(CCCN3C(=O)c4ccccc4C3=O)c2c1`, under setting [2], the AC50 was 0.447 µM [rising, full curve, poor fit].

Regarding `CCOc1ccc(C(CC(=O)O)NC(=O)C23CC4CC(CC(C4)C2)C3)cc1OC` (stereo unspecified), the AC50 under setting [2] is 0.00501 µM [falling, full curve, poor fit].

Regarding `O=C(Cc1cccc2ccccc12)Nc1ccc(OC(F)F)c(Cl)c1`, the AC50 under setting [2] is 12.6 µM [rising, partial curve, poor fit].

For the compound `O=C(CC1C(=O)NCCN1Cc1cccc(Oc2ccccc2)c1)NCc1cccnc1` (stereo unspecified), the AC50 under setting [1] is 22.4 µM [falling, partial curve] and the AC50 under setting [2] was 0.126 µM [falling, full curve].

Turning to `Cc1ccc(S(=O)(=O)c2cn(Cc3ccc(F)cc3)c3cc(N4CCCC4)c(F)cc3c2=O)cc1`, the AC50 under setting [1] is 0.1 µM [falling, single point] and the AC50 under setting [2] was 0.708 µM [falling, single point].

Consider `O=C(c1cccnc1)N1N=C(C2CCCCC2)CC1(O)C(F)(F)F` (stereo unspecified), for which, under setting [2], the AC50 was 0.0224 µM [falling, full curve].

`CCc1ccccc1NC(=O)C(=O)NCCc1sc(-c2cccc(F)c2)nc1C`: the AC50 under setting [2] is 0.282 µM [falling, full curve, poor fit].

For `CCN(CC)S(=O)(=O)c1cc(NC(=O)C(C)N2CCc3ccccc32)ccc1C` (stereo unspecified), under setting [1], the concentration at half-maximal activity (AC50) is 20 µM [falling, single point].

Turning to `CCOC(=O)N1CCN(C(=O)CSCc2nc(-c3ccccc3C)oc2C)CC1`, the concentration at half-maximal activity (AC50) was 25.1 µM [rising, single point] under setting [1] and 25.1 µM [rising, single point] under setting [2].

For `O=[N+]([O-])c1cc(CN2CCN(c3ccccc3)CC2)c(O)c2ncccc12`, the AC50 under setting [1] is 3.98 µM [falling, full curve, poor fit] and the AC50 under setting [2] is 3.16 µM [falling, full curve, poor fit].

For the compound `Clc1cccc(OCCN2CCN(CCOc3cccc(Cl)c3)CC2)c1`, the AC50 under setting [1] was 35.5 µM [falling, single point].

Regarding `S=c1nc[nH]c2c1sc1nc(N3CCOCC3)c3c(c12)CCCC3`, the AC50 under setting [2] was 5.01 µM [rising, single point].

Regarding `CC(C)(C(=O)O)c1ccc(C(O)CCCN2CCC(C(O)(c3ccccc3)c3ccccc3)CC2)cc1` (stereo unspecified), the AC50 under setting [2] was 251 nM [falling, full curve, poor fit] and 158 nM [rising, full curve, poor fit].

`O=C(Nc1ccc(F)c(Cl)c1)N1CCC(CN2CCc3ccccc3C2)CC1`: the AC50 reads like this: under setting [1], 22.4 µM [falling, single point]; under setting [2], 22.4 µM [falling, single point].

With `COC(=O)C1(C(=O)OC)Sc2ccccc2C1=O`, under setting [2], the AC50 was 20 µM [falling, partial curve, poor fit].

On to `Cc1ccc(N=C2S/C(=C\c3cn(CC(=O)O)c4ccccc34)C(=O)N2C)cc1`, for which the half-maximal activity concentration (AC50) was 35.5 µM [rising, single point] under setting [1] and 35.5 µM [rising, single point] under setting [2].

For `CC#C[C@]1(O)CC[C@H]2C3CCC4=CC(=O)CCC4=C3[C@@H](c3ccc(N(C)C)cc3)C[C@@]21C` (stereo partly specified), the AC50 is 3.98 µM [falling, full curve, poor fit] under setting [1] and 5.62 µM [rising, partial curve] under setting [2].
